Values from PubChem BioAssay AID504784 (Drosophila RNAi Screening Center, 2011)

- Aim: 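Search for regulators of lipid droplet storage in oleate-fed fly cells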 (primary screen)
- System: Drosophila Kc167 embryonic cells
- Reagent: long dsRNA against Drosophila genes, about 250 ng dsRNA per well
- Duration: 4 days
- Conditions: cells fed 400 µM oleic acid bound to BSA
- Measured: 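Cells imaged and segmented; ratio of lipid droplet area to nuclear area, log-transformed, then normalised as a B-score over the screen; higher means more stored lipid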
- Direction: droplet/nuclear area B-score: higher = more stored lipid (overstorage)
The screen tested about 17,000 reagents; below is an unselected part of those that have a named target and a result. 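Each column is one replicate's B-score; the combined score over replicates was not deposited, so single values may mislead.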 The numbers tell different reagents against one gene apart. A plus sign joins genes that one reagent is predicted to hit.

no.	Gene	reagent no.	droplet/nuclear area B-score, replicate 1	droplet/nuclear area B-score, replicate 2	droplet/nuclear area B-score, replicate 3
1	Ugt37D1 (UDP-glycosyltransferase family 37 member D1)	1	-0.698	-0.0512	
2	CG31082 (retired record)	1	2.13	-0.106	
3	Taf5 (TBP-associated factor 5)	1	-2.2	-0.509	
4	Cyp312a1 (Cytochrome P450 312a1)	1	0.0222	-0.0398	
5	CG3062	1	0.658	0.408	
6	botv	1	-0.413	1.02	
7	ix (intersex)	1	1.41	-0.592	
8	lncRNA:CR31526 (long non-coding RNA:CR31526)	1	1.85	-0.5	
9	l(1)G0020 (lethal (1) G0020)	1	1.02	3.58	
10	Dpy-30L1 (Dpy-30-like 1)	1	-1.07	0.65	
11	Patsas	1	-0.0355	-0.219	
12	Ucp4A (Uncoupling protein 4A)	1	-2.43	-2.58	-0.851
13	CG10265	1	-0.281	-0.00512	
14	CG10265	2	-0.773	0.145	
15	Zasp66 (Z band alternatively spliced PDZ-motif protein 66)	1	-0.478	-1.69	
16	Zasp66 (Z band alternatively spliced PDZ-motif protein 66)	2	-0.953	0.852	
17	Zasp66 (Z band alternatively spliced PDZ-motif protein 66)	3	-0.0537	0.783	
18	CG10376	1	0.727	-1.27	
19	sip2 (septin interacting protein 2)	1	-1.11	-2.31	
20	CecB (Cecropin B)	1	-0.619	-0.0141	
21	Sk2 (Sphingosine kinase 2)	1	0.342	0.897	
22	p24-1 (p24-related-1)	1	2.43	2.2	0.393
23	Brms1 (BRMS1 transcriptional repressor)	1	-2.6	-2.99	-1.39
24	CG17721	1	0.107	0.013	
25	mtDNA-helicase (mitochondrial DNA helicase)	1	-0.741	0.0468	
26	CG5539	1	0.737	0.608	
27	Rnmt (RNA guanine-7 methyltransferase)	1	-0.368	-0.0356	
28	CG11307	1	-0.00265	-1.04	-2.18
29	Gr64a (Gustatory receptor 64a)	1	1.74	0.00611	
30	CG11109	1	-0.029	-1.16	-1.25
31	Pka-R2 (Protein kinase, cAMP-dependent, regulatory subunit type 2)	1	-1.69	-0.182	
32	Corin	1	-1.71	0.276	-0.565
33	toy (twin of eyeless)	1	-1.42	1.36	
34	sim (single-minded)	1	1.26	-0.108	
35	CG13124	1	-0.147	-1.09	
36	CG10559	1	-0.0435	-0.435	
37	SA2 (Stromalin 2)	1	0.117	3.26	
38	CG13585	1	0.287	-2.07	
39	CG17931 + CG42446	1	0.228	-1.51	
40	moody	1	-1.25	-0.0327	
41	CG13891	1	0.206	0.747	
42	CG14453	1	1.17	-0.206	1.59
43	CG2901	1	0.114	-0.126	
44	vex (vexed)	1	-0.0716	-0.00885	-0.03
45	vex (vexed)	2	0.0786	-2.37	0.704
46	vex (vexed)	3	0.767	0.104	
47	CG31221	1	-1.97	-0.166	
48	CG31221	2	0.0563	0.0784	
49	IKKbeta (I-kappaB kinase beta)	1	-0.0751	3.76	
50	CG13217	1	0.212	0.555	
51	Edg84A (Ecdysone-dependent gene 84A)	1	-0.0457	1.42	
52	TotF (Turandot F)	1	-0.961	-0.146	
53	Hmr (Hybrid male rescue)	1	0.235	1.48	-0.186
54	slmo + CG34179	1	6.15	8.75	
55	CG15731	1	-1.96	-2.07	-0.673
56	CG15731	2	0.256	1.71	
57	CG2616	1	-1.48	0.504	
58	CG14984	1	0.102	0.0407	
59	kar (karmoisin)	1	-0.417		
60	CG12688 (retired record)	1	0.703	-0.299	-0.00148
61	CG12688 (retired record)	2	-1.09	-1.68	-0.258
62	Polr3I (RNA polymerase III subunit I)	1	0.535	-0.088	
63	CR18275 + CR18166 + CG32817	1	-0.0964	0.681	
64	SrpRbeta (Signal recognition particle receptor beta)	1	-0.707	-0.328	
65	CG9084	1	-0.0518	-0.209	
66	RpL14 (Ribosomal protein L14)	1	5.2	4.65	
67	CG9626	1	1.96	-0.0099	
68	CG14053	1	0.59	0.0429	
69	cyc (cycle)	1	-0.398	-0.515	
70	GABPI (beta4GalNAcTB pilot)	1	-0.382	-1.8	
71	tty (tweety)	1	-0.319	1.1	
72	Dbp73D (Dead box protein 73D)	1	0.509	-0.439	-1.7
73	CG9166	1	-0.499	0.484	
74	Hou (Houki)	1	2.66	-0.318	
75	Hou (Houki)	2	5.74	1.05	
76	alien	1	-2.6	-2.9	
77	Cib2 (Calcium and integrin binding family member 2)	1	-0.0962	0.823	
78	Hmt4-20 (Histone methyltransferase 4-20)	1	1.09		
79	CG4860	1	-0.291	-0.479	-0.099
80	CG4860	2	-1.16	-0.348	
81	Ace (Acetylcholine esterase)	1	-0.858	-0.0773	
82	Ctr9	1	-2.72	2.62	
83	Wdr59 (WD repeat domain 59)	1	0.527	-0.103	
